Assay [1] has as its target γ‐tubulin (human (endogenous in MCF10A)) (UniProt P23258). In words: co-IP; 293T cells transfected with the indicated plasmids; lysis in 20 mM Tris-HCl, 150 mM NaCl, 1 mM EDTA, 1 mM EGTA, 1% NP-40, 2.5 mM sodium pyrophosphate, 10% glycerol, pH 7.5; beads 4 °C 4 h, five washes, immunoblotting. (In western blotting, separated proteins are transferred to a membrane and probed.)

Amino acid sequences for entries named in this document (tags omitted). A change or cut given only in a name is not applied to a line headed by its entry.
UniProt P23258: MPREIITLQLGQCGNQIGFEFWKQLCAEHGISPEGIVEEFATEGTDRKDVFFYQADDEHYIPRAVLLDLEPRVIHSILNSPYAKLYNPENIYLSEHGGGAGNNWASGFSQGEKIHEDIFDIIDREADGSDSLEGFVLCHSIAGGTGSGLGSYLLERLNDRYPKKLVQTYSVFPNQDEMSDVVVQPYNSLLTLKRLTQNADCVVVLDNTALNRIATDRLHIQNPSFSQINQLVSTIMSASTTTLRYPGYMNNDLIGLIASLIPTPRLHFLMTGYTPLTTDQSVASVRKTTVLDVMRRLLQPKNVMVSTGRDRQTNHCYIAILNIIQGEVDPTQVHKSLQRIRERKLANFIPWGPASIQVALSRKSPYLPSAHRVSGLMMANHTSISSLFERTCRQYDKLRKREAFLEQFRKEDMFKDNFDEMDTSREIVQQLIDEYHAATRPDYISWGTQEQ
UniProt Q9UPN4: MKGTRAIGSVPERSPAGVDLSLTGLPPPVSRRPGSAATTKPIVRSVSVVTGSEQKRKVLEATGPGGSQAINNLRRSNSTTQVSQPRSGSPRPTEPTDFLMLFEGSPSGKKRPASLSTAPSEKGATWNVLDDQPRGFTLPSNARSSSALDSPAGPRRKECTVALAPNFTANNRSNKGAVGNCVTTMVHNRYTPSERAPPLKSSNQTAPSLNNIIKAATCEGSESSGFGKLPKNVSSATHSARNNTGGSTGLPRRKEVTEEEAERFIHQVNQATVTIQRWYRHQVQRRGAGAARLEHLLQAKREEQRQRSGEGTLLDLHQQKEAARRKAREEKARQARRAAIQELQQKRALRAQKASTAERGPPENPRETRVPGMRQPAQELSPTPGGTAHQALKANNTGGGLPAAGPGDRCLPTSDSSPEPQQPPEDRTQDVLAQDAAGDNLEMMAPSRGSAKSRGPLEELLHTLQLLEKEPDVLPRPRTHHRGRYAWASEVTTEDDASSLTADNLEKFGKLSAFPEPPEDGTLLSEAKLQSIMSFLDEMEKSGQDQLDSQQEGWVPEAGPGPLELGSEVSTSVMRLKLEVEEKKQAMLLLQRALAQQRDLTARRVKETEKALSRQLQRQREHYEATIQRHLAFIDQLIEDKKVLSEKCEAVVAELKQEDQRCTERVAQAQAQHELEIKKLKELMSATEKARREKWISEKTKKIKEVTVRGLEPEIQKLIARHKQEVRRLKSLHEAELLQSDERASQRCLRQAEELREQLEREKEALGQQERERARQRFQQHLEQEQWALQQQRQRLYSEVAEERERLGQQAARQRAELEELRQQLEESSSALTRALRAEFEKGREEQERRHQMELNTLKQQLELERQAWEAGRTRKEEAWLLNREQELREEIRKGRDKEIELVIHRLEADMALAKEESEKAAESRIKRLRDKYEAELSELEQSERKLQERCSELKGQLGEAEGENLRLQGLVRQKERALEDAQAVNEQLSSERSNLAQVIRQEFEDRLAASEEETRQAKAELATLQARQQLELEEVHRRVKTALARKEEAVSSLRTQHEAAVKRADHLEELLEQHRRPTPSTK

Assay [2] deals with T1, OGT, exogenous (GFP‐OGT or HA‐OGT) (UniProt O15294).
T1 sequence: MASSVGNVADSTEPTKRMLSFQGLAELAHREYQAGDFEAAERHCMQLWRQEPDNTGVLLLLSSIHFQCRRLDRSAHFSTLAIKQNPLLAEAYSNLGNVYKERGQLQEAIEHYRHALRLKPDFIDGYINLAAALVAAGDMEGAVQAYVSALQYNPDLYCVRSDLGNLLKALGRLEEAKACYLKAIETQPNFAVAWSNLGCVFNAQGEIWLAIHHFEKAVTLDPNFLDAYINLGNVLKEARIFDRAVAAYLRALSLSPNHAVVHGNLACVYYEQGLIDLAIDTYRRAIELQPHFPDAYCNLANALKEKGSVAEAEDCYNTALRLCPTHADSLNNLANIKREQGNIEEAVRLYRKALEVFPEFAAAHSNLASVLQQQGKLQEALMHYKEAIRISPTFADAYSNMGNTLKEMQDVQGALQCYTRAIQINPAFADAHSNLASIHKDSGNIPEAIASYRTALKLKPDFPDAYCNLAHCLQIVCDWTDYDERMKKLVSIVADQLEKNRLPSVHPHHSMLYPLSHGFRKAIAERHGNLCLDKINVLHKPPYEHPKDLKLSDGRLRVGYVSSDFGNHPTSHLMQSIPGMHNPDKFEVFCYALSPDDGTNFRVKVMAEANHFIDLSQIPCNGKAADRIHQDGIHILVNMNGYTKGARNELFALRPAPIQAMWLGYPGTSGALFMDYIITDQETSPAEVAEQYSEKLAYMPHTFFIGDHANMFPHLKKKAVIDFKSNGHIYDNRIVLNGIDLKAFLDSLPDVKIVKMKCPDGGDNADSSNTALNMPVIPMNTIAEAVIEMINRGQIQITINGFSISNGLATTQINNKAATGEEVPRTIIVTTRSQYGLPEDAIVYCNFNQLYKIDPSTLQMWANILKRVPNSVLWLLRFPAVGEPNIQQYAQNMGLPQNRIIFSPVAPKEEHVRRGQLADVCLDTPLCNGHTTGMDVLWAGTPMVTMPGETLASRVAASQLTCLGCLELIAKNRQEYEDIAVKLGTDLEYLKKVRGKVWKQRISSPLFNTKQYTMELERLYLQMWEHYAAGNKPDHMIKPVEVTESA
The assay is described as above.

These are yes or no findings as the source states them, for the method shown. Binding seen in cells or lysates may run through a third protein. A result given as binding can be weak or reduced; the word gives no strength. For some assays here: Sequences can lack the tags named with a protein.

With “GFP‐CEP131‐mutant (five‐site mutant of CEP131) (from UniProt Q9UPN4)”, the binding result in assay [1] is listed as “binds”.

Turning to “Flag‐∆N truncation of CEP131 (domain or fragment)”, in assay [2], the binding result is given as “binds”.

(Values after paper PMC10754140.)
